Reference: paper PMC7806630, “Molecular basis of the interaction of the human tyrosine phosphatase PTPN3 with the hepatitis B virus core protein” (Scientific Reports, 2021)

Protein sequences, listed by entry. Tags and fused reporters are not part of them. Residues count along the entry.
UniProt P26045, residues 489-597: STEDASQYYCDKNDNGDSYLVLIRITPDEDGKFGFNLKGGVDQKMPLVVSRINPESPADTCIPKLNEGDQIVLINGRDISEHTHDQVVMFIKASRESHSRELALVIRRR
UniProt P26599: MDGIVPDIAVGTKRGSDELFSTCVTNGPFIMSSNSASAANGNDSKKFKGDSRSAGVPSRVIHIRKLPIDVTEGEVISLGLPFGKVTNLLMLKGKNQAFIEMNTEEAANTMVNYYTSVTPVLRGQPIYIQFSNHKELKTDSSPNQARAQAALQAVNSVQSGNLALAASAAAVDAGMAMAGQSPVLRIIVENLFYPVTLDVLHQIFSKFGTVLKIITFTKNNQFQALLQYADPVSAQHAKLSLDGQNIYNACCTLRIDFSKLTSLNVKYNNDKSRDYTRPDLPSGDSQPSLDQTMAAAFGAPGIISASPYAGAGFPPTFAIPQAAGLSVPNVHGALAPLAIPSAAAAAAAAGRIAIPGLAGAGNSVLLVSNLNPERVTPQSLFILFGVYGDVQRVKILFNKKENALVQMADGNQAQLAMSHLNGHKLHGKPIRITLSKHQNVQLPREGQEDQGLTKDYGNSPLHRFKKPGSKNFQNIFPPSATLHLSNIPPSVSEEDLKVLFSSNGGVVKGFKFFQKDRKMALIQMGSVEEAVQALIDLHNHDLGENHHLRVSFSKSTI
UniProt P55060: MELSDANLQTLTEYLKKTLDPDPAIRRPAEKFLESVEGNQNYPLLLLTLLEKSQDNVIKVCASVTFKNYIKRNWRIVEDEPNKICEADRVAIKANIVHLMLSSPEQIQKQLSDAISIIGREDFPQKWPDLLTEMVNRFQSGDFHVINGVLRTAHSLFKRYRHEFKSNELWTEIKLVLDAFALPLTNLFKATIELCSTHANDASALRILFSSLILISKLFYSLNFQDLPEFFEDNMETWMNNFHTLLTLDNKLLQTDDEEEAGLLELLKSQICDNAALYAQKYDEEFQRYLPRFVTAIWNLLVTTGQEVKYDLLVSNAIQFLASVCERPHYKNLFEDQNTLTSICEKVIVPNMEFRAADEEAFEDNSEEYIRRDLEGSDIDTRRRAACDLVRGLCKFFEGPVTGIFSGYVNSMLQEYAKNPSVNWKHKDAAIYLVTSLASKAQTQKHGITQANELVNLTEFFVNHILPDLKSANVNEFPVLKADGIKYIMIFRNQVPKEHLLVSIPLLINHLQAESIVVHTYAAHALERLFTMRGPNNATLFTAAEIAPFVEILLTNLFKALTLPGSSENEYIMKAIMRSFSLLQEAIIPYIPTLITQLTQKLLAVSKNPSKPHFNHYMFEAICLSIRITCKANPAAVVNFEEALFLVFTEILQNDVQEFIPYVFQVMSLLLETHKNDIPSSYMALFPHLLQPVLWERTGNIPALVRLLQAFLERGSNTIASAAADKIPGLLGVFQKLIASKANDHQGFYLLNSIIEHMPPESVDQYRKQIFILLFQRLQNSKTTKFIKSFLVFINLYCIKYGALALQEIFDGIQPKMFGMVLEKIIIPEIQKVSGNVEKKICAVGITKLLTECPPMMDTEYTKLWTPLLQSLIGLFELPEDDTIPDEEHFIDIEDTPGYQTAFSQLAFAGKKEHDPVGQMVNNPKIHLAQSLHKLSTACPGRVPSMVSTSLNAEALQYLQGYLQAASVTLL

B1: Podocalyxin (protein, UniProt O00592 23-558)
chain: SPSPSPSPSQNATQTTTDSSNKTAPTPASSVTIMATDTAQQSTVPTSKANEILASVKATTLGVSSDSPGTTTLAQQVSGPVNTTVARGGGSGNPTTTIESPKSTKSADTTTVATSTATAKPNTTSSQNGAEDTTNSGGKSSHSVTTDLTSTKAEHLTTPHPTSPLSPRQPTSTHPVATPTSSGHDHLMKISSSSSTVAIPGYTFTSPGMTTTLLETVFHHVSQAGLELLTSGDLPTLASQSAGITASSVISQRTQQTSSQMPASSTAPSSQETVQPTSPATALRTPTLPETMSSSPTAASTTHRYPKTPSPTVAHESNWAKCEDLETQTQSEKQLVLNLTGNTLCAGGASDEKLISLICRAVKATFNPAQDKCGIRLASVPGSQTVVVKEITIHTKLPAKDVYERLKDKWDELKEAGVSDMKLGDQGPPEEAEDRFSMPLIITIVCMASFLLLVAALYGCCHQRLSQRKDQQRLTEELQTVENGYHDNPTLEVMETSSEMQEKKVVSLNGELGDSWIVPLDNLTKDDLDEEEDTHL
B2: Acot8 (protein, UniProt O14734 1-319)
chain: MSSPQAPEDGQGCGDRGDPPGDLRSVLVTTVLNLEPLDEDLFRGRHYWVPAKRLFGGQIVGQALVAAAKSVSEDVHVHSLHCYFVRAGDPKLPVLYQVERTRTGSSFSVRSVKAVQHGKPIFICQASFQQAQPSPMQHQFSMPTVPPPEELLDCETLIDQYLRDPNLQKRYPLALNRIAAQEVPIEIKPVNPSPLSQLQRMEPKQMFWVRARGYIGEGDMKMHCCVAAYISDYAFLGTALLPHQWQHKVHFMVSLDHSMWFHAPFRADHWMLYECESPWAGGSRGLVHGRLWRQDGVLAVTCAQEGVIRVKPQVSESKL
B3: hnRNP A0 (protein, UniProt Q13151 1-305)
chain: MENSQLCKLFIGGLNVQTSESGLRGHFEAFGTLTDCVVVVNPQTKRSRCFGFVTYSNVEEADAAMAASPHAVDGNTVELKRAVSREDSARPGAHAKVKKLFVGGLKGDVAEGDLIEHFSQFGTVEKAEIIADKQSGKKRGFGFVYFQNHDAADKAAVVKFHPIQGHRVEVKKAVPKEDIYSGGGGGGSRSSRGGRGGRGRGGGRDQNGLSKGGGGGYNSYGGYGGGGGGGYNAYGGGGGGSSYGGSDYGNGFGGFGSYSQHQSSYGPMKSGGGGGGGGSSWGGRSNSGPYRGGYGGGGGYGGSSF
B4: 2′,3′-Cyclic Nucleotide 3′-Phosphodiesterase (CNP) (protein, UniProt P09543 1-421)
chain: MNRGFSRKSHTFLPKIFFRKMSSSGAKDKPELQFPFLQDEDTVATLLECKTLFILRGLPGSGKSTLARVIVDKYRDGTKMVSADAYKITPGARGAFSEEYKRLDEDLAAYCRRRDIRILVLDDTNHERERLEQLFEMADQYQYQVVLVEPKTAWRLDCAQLKEKNQWQLSADDLKKLKPGLEKDFLPLYFGWFLTKKSSETLRKAGQVFLEELGNHKAFKKELRQFVPGDEPREKMDLVTYFGKRPPGVLHCTTKFCDYGKAPGAEEYAQQDVLKKSYSKAFTLTISALFVTPKTTGARVELSEQQLQLWPSDVDKLSPTDNLPRGSRAHITLGCAADVEAVQTGLDLLEILRQEKGGSRGEEVGELSRGKLYSLGNGRWMLTLAKNMEVRAIFTGYYGKGKPVPTQGSRKGGALQSCTII
B5: Vangl1 (planar cell polarity protein 1) (protein, UniProt Q8TAA9 1-524)
chain: MDTESTYSGYSYYSSHSKKSHRQGERTRERHKSPRNKDGRGSEKSVTIQPPTGEPLLGNDSTRTEEVQDDNWGETTTAITGTSEHSISQEDIARISKDMEDSVGLDCKRYLGLTVASFLGLLVFLTPIAFILLPPILWRDELEPCGTICEGLFISMAFKLLILLIGTWALFFRKRRADMPRVFVFRALLLVLIFLFVVSYWLFYGVRILDSRDRNYQGIVQYAVSLVDALLFIHYLAIVLLELRQLQPMFTLQVVRSTDGESRFYSLGHLSIQRAALVVLENYYKDFTIYNPNLLTASKFRAAKHMAGLKVYNVDGPSNNATGQSRAMIAAAARRRDSSHNELYYEEAEHERRVKKRKARLVVAVEEAFIHIQRLQAEEQQKAPGEVMDPREAAQAIFPSMARALQKYLRITRQQNYHSMESILQHLAFCITNGMTPKAFLERYLSAGPTLQYDKDRWLSTQWRLVSDEAVTNGLRDGIVFVLKCLDFSLVVNVKKIPFIILSEEFIDPKSHKFVLRLQSETSV

biological target: GST-tagged PTPN3 PDZ domain (GST-PTPN3-PDZ) (human) (UniProt P26045); assay: affinity purification with mass spectrometry; only the target purified

| Molecule | binding |
| --- | --- |
| PTB, the polypyrimidine tract-binding protein (from UniProt P26599 1-557) | binds |
| Exportin 2 (from UniProt P55060 1-971) | binds |
| B1 | binds |
| B2 | binds |
| B3 | binds |
| B4 | binds |
| B5 | binds |

Results are given in words; binding and its absence hold for the method and conditions named. In cells and extracts the contact can be indirect. Here binding means that the protein was enriched with, or labelled near, the bait; the list need not be complete.
